Source: PubChem BioAssay AID1224830 (NIAID, 2016)

- Screen: 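Genes whose knock-down alters the TNF-alpha reporter response to LPS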 (primary screen)
- Cells: human THP-1 monocytic leukaemia cells, TNF dual-luciferase reporter clone, PMA-differentiated to macrophage-like cells
- Knock-down reagent: siRNA pool against human genes, 50 nM
- Duration: LPS for 4 h, given about 3 days after siRNA transfection
- Conditions: bacterial LPS (TLR4 ligand), 10 ng/ml
- Detection: 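TNF firefly reporter luminescence divided by renilla, normalised to the plate median, then turned into a robust z-score for each replicate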
- Direction: TNF reporter robust z-score: higher = stronger TNF reporter response to LPS
- Call rule: 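a well is active when its z-score exceeds 2.8 or falls below -1.5; control wells carry no call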
The deposit covers about 18,000 reagents; this is a part drawn at random. Of all reagents, about 2,900 (16%) are marked active. 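Calls are made per well; low scores hint the gene aids the LPS response, high scores that it dampens it.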 Unmarked entries are inactive. Repeated entries: four replicate wells of each siRNA pool.

gene symbol | TNF reporter robust z-score
DNM1L (GeneID 10059) | -1.53 (active)
DNM1L (GeneID 10059) | -1.64 (active)
DNM1L (GeneID 10059) | -0.7
DNM1L (GeneID 10059) | -1.56 (active)
ZNF768 (GeneID 79724) | 1.18
ZNF768 (GeneID 79724) | 0.31
ZNF768 (GeneID 79724) | 0.14
ZNF768 (GeneID 79724) | 1.17
TMEM248 (GeneID 55069) | -1.05
TMEM248 (GeneID 55069) | -0.14
TMEM248 (GeneID 55069) | -0.34
TMEM248 (GeneID 55069) | -0.73
ACSL5 (GeneID 51703) | -1.26
ACSL5 (GeneID 51703) | -0.92
ACSL5 (GeneID 51703) | -1.18
ACSL5 (GeneID 51703) | -0.37
COTL1 (GeneID 23406) | -1.14
COTL1 (GeneID 23406) | -1.03
COTL1 (GeneID 23406) | -1.06
OR11G2 (GeneID 390439) | -0.32
OR11G2 (GeneID 390439) | -0.26
OR11G2 (GeneID 390439) | -0.36
OR11G2 (GeneID 390439) | 0.27
CIAO1 (GeneID 9391) | 0.55
CIAO1 (GeneID 9391) | 0.82
CIAO1 (GeneID 9391) | 0.28
CIAO1 (GeneID 9391) | 0.81
DNAJB4 (GeneID 11080) | -0.35
DNAJB4 (GeneID 11080) | 1.46
DNAJB4 (GeneID 11080) | 0.44
DNAJB4 (GeneID 11080) | 1.4
GRAMD2A (GeneID 196996) | -1.42
GRAMD2A (GeneID 196996) | -1.67 (active)
GRAMD2A (GeneID 196996) | -1.1
GRAMD2A (GeneID 196996) | -0.59
RCAN1 (GeneID 1827) | 0.47
RCAN1 (GeneID 1827) | -0.32
RCAN1 (GeneID 1827) | -0.1
RCAN1 (GeneID 1827) | -0.31

10 neighbouring records already listed, for reference:
gene symbol | TNF reporter robust z-score
COTL1 (GeneID 23406) | -1.06
OR11G2 (GeneID 390439) | -0.32
OR11G2 (GeneID 390439) | -0.26
OR11G2 (GeneID 390439) | -0.36
OR11G2 (GeneID 390439) | 0.27
CIAO1 (GeneID 9391) | 0.55
CIAO1 (GeneID 9391) | 0.82
CIAO1 (GeneID 9391) | 0.28
CIAO1 (GeneID 9391) | 0.81
DNAJB4 (GeneID 11080) | -0.35

Continued.
gene symbol | TNF reporter robust z-score
BAZ2B (GeneID 29994) | -0.92
BAZ2B (GeneID 29994) | 0.23
BAZ2B (GeneID 29994) | -0.59
BAZ2B (GeneID 29994) | 1.22
ZMPSTE24 (GeneID 10269) | 0.75
ZMPSTE24 (GeneID 10269) | 1.94
ZMPSTE24 (GeneID 10269) | 0.89
ZMPSTE24 (GeneID 10269) | 0
PRKCQ (GeneID 5588) | -0.75
PRKCQ (GeneID 5588) | 0.16
PRKCQ (GeneID 5588) | -0.33
PRKCQ (GeneID 5588) | 1.06
JPH4 (GeneID 84502) | 0.85
JPH4 (GeneID 84502) | -1.01
JPH4 (GeneID 84502) | -0.85
JPH4 (GeneID 84502) | -0.42
RAB44 (GeneID 401258) | -0.49
RAB44 (GeneID 401258) | 0.78
RAB44 (GeneID 401258) | -0.35
RAB44 (GeneID 401258) | -0.27
TBC1D16 (GeneID 125058) | -1.42
TBC1D16 (GeneID 125058) | -0.46
TBC1D16 (GeneID 125058) | -0.81
TBC1D16 (GeneID 125058) | 0.37
CLINT1 (GeneID 9685) | -1.61 (active)
CLINT1 (GeneID 9685) | -1.26
CLINT1 (GeneID 9685) | -1.39
CLINT1 (GeneID 9685) | -1.13
C12orf76 (GeneID 400073) | -0.84
C12orf76 (GeneID 400073) | -0.59
C12orf76 (GeneID 400073) | -0.3
C12orf76 (GeneID 400073) | 0.51
ACBD3 (GeneID 64746) | 0.18
ACBD3 (GeneID 64746) | -0.16
ACBD3 (GeneID 64746) | 1.27
ACBD3 (GeneID 64746) | 0.7
